PMC8814081
Results are given in words; binding and its absence hold for the method and conditions named. Binding seen in cells or lysates may run through a third protein. A yes stands for co-enrichment or nearness to the bait. Other partners may have been found.

The chains behind the UniProt entries cited, without tags or fusion partners.
UniProt P57764: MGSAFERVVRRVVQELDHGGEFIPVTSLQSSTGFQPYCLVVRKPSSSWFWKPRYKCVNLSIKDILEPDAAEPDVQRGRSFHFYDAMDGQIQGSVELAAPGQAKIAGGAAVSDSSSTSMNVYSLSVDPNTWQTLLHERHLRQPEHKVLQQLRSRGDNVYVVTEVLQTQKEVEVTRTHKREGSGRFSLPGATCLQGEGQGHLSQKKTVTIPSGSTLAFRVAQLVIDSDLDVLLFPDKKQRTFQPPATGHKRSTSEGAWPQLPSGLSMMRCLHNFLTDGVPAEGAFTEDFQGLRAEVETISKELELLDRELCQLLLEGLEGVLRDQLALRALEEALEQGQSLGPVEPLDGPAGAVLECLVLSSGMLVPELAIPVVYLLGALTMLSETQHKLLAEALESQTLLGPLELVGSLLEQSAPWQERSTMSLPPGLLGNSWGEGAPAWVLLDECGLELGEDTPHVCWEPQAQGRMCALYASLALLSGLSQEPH
UniProt Q86TM6: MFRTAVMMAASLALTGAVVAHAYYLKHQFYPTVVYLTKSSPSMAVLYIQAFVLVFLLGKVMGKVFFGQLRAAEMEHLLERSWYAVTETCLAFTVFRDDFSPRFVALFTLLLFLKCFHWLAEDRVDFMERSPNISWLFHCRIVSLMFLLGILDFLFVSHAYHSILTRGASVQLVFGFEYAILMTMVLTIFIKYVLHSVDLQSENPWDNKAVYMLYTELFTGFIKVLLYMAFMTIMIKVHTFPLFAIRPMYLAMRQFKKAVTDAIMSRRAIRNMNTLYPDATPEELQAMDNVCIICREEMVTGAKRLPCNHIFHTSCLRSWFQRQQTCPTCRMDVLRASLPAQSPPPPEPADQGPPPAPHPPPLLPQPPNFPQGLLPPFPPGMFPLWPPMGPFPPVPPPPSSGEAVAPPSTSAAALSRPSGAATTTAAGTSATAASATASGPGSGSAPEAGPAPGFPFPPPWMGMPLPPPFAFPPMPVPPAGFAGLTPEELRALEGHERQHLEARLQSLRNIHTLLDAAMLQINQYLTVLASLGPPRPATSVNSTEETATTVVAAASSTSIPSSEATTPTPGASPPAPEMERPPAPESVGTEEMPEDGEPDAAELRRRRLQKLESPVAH

Target: Flag-human GSDMD (p3 × Flag-hGSDMD-FL) (human) (UniProt P57764)
Assay: affinity purification with mass spectrometry; HEK293T cells co-transfected with SYVN1-Myc and Flag-GSDMD; anti-Flag immunoprecipitates resolved on SDS-PAGE, bands digested with trypsin, LC-MS/MS

binding: binds
Substance: SYVN1-Myc (pcDNA3.1-SYVN1-Myc) (from UniProt Q86TM6 1-617) (enzyme)
